Source: publication PMC4859800
No constants are given. Whether binding was seen depends on the method and setting.

The chains behind the UniProt entries cited, without tags or fusion partners. Where a name states a change or a piece, a line headed by the entry shows the natural chain unless it says otherwise.
UniProt P40007: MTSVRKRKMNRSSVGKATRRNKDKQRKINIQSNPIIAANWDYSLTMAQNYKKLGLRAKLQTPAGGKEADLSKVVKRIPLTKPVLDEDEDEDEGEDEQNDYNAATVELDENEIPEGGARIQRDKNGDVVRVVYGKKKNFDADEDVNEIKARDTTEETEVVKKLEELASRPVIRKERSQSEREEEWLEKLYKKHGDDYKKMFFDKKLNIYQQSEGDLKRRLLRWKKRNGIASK

Key:
Assay in all cases: two-hybrid; array-based Y2H matrix; preys in pACT2 (PJ69-4a) mated against 23 baits in pAS2-1 (PJ69-4α); growth on SD-Leu-Trp-His + 6 mM 3-AT greater than the negative control after 2 weeks
[1] = molecular target: T1, Nug1 (Y2H bait, pAS2-1) (S. cerevisiae) (UniProt P40010)
T1 sequence: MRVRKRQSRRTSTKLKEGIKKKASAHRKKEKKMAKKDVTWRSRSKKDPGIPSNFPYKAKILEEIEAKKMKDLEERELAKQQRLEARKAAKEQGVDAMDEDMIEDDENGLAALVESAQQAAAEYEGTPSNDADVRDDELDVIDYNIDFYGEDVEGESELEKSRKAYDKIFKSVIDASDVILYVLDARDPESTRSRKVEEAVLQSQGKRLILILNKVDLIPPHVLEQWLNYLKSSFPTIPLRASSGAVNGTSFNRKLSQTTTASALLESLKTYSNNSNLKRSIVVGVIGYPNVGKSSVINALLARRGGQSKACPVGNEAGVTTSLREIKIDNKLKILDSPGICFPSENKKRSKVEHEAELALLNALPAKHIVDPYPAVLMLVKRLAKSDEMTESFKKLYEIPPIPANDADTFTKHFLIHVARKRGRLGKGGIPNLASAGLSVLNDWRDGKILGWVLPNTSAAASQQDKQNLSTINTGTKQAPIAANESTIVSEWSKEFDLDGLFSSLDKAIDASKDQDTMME

[2] = molecular target: T2, Cgr1 (Y2H bait, pAS2-1) (S. cerevisiae) (UniProt P53188)
T2 sequence: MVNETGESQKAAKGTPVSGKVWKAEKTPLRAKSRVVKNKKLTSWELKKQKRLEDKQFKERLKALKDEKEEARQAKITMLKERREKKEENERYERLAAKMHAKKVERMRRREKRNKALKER

[3] = molecular target: T3, Rrp14 (Y2H bait, pAS2-1) (S. cerevisiae) (UniProt P36080)
T3 sequence: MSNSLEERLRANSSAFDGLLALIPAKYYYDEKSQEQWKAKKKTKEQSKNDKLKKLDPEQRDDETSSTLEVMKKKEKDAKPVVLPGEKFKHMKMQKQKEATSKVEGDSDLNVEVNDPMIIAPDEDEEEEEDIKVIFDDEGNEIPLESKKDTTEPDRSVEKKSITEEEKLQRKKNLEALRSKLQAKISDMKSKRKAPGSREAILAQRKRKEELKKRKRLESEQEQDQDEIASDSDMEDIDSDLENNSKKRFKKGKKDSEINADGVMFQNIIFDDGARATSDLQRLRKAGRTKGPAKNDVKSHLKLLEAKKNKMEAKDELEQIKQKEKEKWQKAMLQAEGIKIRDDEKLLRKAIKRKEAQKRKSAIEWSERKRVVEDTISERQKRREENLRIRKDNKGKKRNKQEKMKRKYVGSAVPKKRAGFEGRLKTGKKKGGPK

[4] = molecular target: T4, Nog1 (Y2H bait, pAS2-1) (S. cerevisiae) (UniProt Q02892)
T4 sequence: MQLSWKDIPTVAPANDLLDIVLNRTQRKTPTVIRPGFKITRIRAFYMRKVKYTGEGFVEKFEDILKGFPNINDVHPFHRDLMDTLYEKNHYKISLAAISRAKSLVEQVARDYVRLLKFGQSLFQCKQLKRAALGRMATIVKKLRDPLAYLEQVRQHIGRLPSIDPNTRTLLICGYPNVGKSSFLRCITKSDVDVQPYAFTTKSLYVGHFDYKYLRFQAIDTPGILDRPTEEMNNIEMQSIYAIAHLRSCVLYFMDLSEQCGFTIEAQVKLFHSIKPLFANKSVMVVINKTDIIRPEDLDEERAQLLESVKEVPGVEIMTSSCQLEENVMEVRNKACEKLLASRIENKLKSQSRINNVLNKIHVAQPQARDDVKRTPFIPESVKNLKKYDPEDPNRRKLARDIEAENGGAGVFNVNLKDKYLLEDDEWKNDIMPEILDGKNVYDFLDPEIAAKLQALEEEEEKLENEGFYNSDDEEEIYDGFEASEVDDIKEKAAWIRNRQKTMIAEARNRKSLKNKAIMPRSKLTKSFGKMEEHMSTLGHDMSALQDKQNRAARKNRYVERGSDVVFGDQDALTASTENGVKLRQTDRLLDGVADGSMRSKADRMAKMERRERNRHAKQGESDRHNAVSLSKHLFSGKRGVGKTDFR

[5] = molecular target: Nop16 (Y2H bait, pAS2-1) (S. cerevisiae) (UniProt P40007)

Measured: binding

B1: Nop4 RRM 1–2 (Y2H prey, pACT2) (domain or fragment, UniProt P37838 1-250)
chain: MEETIENVEVPSSNVSKQNDDGLDMKTLFVRSIPQDVTDEQLADFFSNFAPIKHAVVVKDTNKRSRGFGFVSFAVEDDTKEALAKARKTKFNGHILRVDIAKRRDRSKKTSEVVEKSTPESSEKITGQNNEDEDDADGEDSMLKGKPKLIIRNMPWSCRDPVKLKKIFGRYGTVVEATIPRKRDGKLCGFAFVTMKKISNCRIALENTKDLKIDGRKVAVDFAVQKNRWEDYKKAQPEMNDKDDNESGNE
no binding: all assays above
